Patent US20250235437A1, “PROTEOLYSIS TARGETING CHIMERA (PROTAC) MOLECULE FOR DEGRADATION OF ENL AND CANCER THERAPY” (Baylor College of Medicine, priority 2022, published 2025)
Some results were stated once for a whole list of compounds, not compound by compound. For at least one compound, name, drawing or mass did not settle the structure.

Assays:
AF9 = target: T1, AF9 (Homo sapiens, UniProt P42568); experiment: AF9 levels in MV4;11 cells (Western blot); type: cell-based
T1 construct: tested whether the compounds degrade ENL and AF9 in MV4;11 leukemia cells; endogenous in cells; host or cells: MV4;11
T1 sequence (P42568 1-568): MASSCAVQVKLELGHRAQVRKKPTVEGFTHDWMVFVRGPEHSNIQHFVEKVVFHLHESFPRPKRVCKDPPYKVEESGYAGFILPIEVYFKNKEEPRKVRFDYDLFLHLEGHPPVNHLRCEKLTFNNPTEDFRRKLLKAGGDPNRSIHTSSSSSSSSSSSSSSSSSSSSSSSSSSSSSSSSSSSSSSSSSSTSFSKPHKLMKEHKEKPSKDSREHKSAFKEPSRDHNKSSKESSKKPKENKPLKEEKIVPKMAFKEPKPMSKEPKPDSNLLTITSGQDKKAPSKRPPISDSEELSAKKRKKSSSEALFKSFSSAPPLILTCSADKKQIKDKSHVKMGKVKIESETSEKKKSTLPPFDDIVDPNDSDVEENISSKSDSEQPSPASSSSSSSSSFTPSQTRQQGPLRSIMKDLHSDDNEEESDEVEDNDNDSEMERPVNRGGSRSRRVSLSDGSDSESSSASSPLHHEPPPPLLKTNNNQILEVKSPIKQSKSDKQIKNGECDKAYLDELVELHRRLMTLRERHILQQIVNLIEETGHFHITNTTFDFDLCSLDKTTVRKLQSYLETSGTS

AF9 YEATS = target: T2, AF9 YEATS (Homo sapiens, UniProt P42568); experiment: ALPHA assay, binding to AF9 YEATS; details: similar ALPHA assay, compared with ENL YEATS
T2 sequence (P42568 1-138 limits assumed): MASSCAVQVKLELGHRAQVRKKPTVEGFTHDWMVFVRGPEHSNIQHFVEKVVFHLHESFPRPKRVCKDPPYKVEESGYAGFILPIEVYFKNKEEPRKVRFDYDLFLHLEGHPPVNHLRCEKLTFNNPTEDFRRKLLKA

Structure (SMILES)	AF9 levels (AF9)	binding to AF9 YEATS (AF9 YEATS)
C[C@H]1CCCN1Cc1nc2cc(NC(=O)c3ccc4c(cnn4CCCCNc4cccc5c4C(=O)N(C4CCC(=O)NC4=O)C5=O)c3)ccc2[nH]1 (stereo partly drawn) [Compound 3]	not reduced	comparable affinities
C[C@H]1CCCN1Cc1nc2cc(NC(=O)c3ccc4c(cnn4CCCCCCNc4cccc5c4C(=O)N(C4CCC(=O)NC4=O)C5=O)c3)ccc2[nH]1 (stereo partly drawn) [Compound 2]	not reduced	comparable affinities
C[C@H]1CCCN1Cc1nc2cc(NC(=O)c3ccc4c(cnn4CCCCCCCCNc4cccc5c4C(=O)N(C4CCC(=O)NC4=O)C5=O)c3)ccc2[nH]1 (stereo partly drawn) [Compound 1]	not reduced	comparable affinities
